Source: article PMC11194072, “Cdc13 exhibits dynamic DNA strand exchange in the presence of telomeric DNA”
The exact form of at least one protein or probe is not confirmed. For some of these results: Weaker means in comparison with the reference protein, sequence or condition of that experiment. For some of these results: Where a protein sequence is shown, tags need not be part of it. For some of these results: At least one verdict was read from the data and is not stated in words by the source.

Chains of the proteins cited; added tags and fusions are not shown. A line that says so, or that is headed by a name, gives the form on record, which may keep a tag or linker.
RPA heterotrimer (Rfa1-3) (Saccharomyces cerevisiae), one chain, as listed by the source, chain 1 of 3: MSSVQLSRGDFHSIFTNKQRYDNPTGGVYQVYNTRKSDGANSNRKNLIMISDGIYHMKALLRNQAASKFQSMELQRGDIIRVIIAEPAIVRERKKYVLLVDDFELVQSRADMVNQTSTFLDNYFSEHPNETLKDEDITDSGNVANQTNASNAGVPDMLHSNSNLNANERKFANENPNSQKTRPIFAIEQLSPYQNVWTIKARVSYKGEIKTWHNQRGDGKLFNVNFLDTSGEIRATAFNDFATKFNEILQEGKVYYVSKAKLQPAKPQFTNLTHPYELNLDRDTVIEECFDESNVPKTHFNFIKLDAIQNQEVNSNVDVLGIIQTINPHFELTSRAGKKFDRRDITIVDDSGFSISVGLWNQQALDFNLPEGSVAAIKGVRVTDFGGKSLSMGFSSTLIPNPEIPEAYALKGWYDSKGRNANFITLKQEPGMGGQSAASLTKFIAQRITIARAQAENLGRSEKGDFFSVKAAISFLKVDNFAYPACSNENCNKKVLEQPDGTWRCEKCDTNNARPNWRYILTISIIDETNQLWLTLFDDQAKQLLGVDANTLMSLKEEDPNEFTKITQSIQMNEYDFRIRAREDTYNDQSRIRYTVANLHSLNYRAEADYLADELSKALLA
RPA heterotrimer (Rfa1-3) (Saccharomyces cerevisiae), one chain, as listed by the source, chain 3 of 3: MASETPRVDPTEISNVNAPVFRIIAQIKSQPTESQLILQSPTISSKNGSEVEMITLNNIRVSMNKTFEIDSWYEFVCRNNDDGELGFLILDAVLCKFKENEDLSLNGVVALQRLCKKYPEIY
RPA heterotrimer (Rfa1-3) (Saccharomyces cerevisiae), one chain, as listed by the source, chain 2 of 3: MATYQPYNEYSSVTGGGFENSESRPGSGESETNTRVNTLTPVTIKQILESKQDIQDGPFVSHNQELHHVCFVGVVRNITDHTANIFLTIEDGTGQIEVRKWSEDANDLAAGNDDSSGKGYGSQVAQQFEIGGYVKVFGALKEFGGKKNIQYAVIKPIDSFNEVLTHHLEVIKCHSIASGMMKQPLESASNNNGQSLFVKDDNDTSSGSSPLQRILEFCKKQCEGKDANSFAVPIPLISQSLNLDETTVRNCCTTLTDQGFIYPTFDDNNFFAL

Assays:
[1] = target: T1, Cdc13 full-length (Sf9) (Saccharomyces cerevisiae) (UniProt P32797); test: competition with a labelled probe; conditions: 25 mM HEPES pH 8.0, 5% glycerol, 50 mM NaOAc, 150 mM NaCl, 7.5 mM MgCl2, 0.01% Tween 20, EMSA/DDE at 30°C, residues 1-924, protein details: N-terminal SUMO-His6 tag, C-terminal FLAG tag, single-stranded DNA; for IC50: EC50, prebound IR700-Tel30G 2 nM
T1 sequence (looked up): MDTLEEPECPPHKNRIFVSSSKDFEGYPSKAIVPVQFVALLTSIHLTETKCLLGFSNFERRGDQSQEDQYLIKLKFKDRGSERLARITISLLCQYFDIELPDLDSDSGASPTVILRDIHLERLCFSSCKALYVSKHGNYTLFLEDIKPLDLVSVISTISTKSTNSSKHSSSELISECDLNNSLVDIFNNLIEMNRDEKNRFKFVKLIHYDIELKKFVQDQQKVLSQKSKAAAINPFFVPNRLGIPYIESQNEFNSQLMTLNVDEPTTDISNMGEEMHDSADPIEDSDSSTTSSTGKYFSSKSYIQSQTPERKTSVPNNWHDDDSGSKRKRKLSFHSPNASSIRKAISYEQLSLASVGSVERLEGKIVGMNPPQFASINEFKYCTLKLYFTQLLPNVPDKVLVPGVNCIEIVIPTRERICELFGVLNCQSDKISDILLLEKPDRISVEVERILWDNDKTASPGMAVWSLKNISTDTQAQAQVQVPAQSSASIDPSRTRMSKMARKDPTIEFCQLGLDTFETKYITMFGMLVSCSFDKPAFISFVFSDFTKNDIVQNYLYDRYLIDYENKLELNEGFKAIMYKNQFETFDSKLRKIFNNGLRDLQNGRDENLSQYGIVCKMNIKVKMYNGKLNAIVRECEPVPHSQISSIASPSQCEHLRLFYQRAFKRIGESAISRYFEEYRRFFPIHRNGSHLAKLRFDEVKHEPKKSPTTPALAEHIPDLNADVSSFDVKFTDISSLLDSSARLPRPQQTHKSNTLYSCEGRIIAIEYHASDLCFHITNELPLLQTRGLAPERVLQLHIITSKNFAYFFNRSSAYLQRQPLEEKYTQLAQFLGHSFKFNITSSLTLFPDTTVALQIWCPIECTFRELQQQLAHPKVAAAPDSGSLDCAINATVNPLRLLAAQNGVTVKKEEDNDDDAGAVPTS

[2] = target: T2, Cdc13 OB1 (Saccharomyces cerevisiae) (UniProt P32797); test: BLI; conditions: failed to robustly bind (data not shown); 25 mM HEPES pH 8.0, 5% glycerol, 50 mM NaOAc, 150 mM NaCl, 7.5 mM MgCl2, 0.01% Tween 20; BLI without glycerol at ~23°C; recombinant protein; protein details: N-terminal His6-SUMO, C-terminal 3xFLAG; label: 5' biotin-TEG; single-stranded DNA
T2 sequence (looked up, limits assumed): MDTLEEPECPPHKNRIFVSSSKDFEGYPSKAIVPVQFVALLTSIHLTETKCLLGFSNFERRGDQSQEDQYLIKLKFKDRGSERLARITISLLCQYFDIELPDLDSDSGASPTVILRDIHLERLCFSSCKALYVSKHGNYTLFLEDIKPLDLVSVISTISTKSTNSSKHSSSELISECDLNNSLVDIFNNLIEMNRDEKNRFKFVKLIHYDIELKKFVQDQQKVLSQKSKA

[3] = target: T1, Cdc13 full-length (Sf9) (Saccharomyces cerevisiae); test: EMSA; conditions: IR700-Tel15G prebound, then Tel11G challenge; 25 mM HEPES pH 8.0, 5% glycerol, 50 mM NaOAc, 150 mM NaCl, 7.5 mM MgCl2, 0.01% Tween 20; EMSA/DDE at 30°C; recombinant protein; residues 1-924; protein details: N-terminal SUMO-His6 tag, C-terminal FLAG tag; label: none, or 5' IRDye700; single-stranded DNA
[4] = test system: RPA heterotrimer (Rfa1-3) (Saccharomyces cerevisiae); test: competition with a labelled probe; conditions: prebound labelled Tel30G, weak even at 100 nM; 25 mM HEPES pH 8.0, 5% glycerol, 50 mM NaOAc, 150 mM NaCl, 7.5 mM MgCl2, 0.01% Tween 20; EMSA/DDE at 30°C; recombinant protein; protein details: untagged; label: none, or 5' IRDye700/800; single-stranded DNA

GTGTGGGTGTGGTGTGGGTGTGGTGTGGGTGTGTGGGTGTGGTGTGGGTG [Tel50G unlabelled (MB1117)]
binding result ([1]; poor competitor of prebound IR700-Tel50G, even at 25-fold excess, recombinant protein): binds more weakly

CGCCATGCTGATCCGTGTGGTGTGTGTGGG [Biotinylated Tel30G (MB2081)]
binding result [2]: binds more weakly

GTGTGGGTGTG [Tel11G (MB1983 / MB2018 IR700)]
IC50 ([1]; Cdc13 dimer 3.75 nM, recombinant protein, label: none, or 5' IRDye700): 13.5 nM
binding result ([1]; Tel11G failed to compete with prebound IR700-Tel50G, recombinant protein, label: none, or 5' IRDye700): binds more weakly

TGTGGTGTGTGTGGG [Tel15G (MB1013 / MB1929 IR700)]
binding result [3]: binds
IC50 ([1]; recombinant …, label: none, or 5' IRDye700): 7.2 nM

TTTTTTTTTTTTTTTTTTTTTTTTTTTTTT [Poly(dT)30 (MB464 / MB1755 IR700 / MB1982 IR800)]
binding result [4]: binds more weakly
